This note sets out measurements from PubChem BioAssay AID445 (National Center for Advancing Translational Sciences (NCATS), 2006).

This is one part of the list. Further columns of the screen follow, without active or inactive calls. Most of these compounds were active or inconclusive in the main read-out, so they are no random draw. The note in brackets gives the kind of curve behind each potency; many fits are weak.

The assay is described as follows: IkB Signaling. The note with it: ABC-DLBCL IkBa-CBG/CBR dual luciferase ratio (green luciferase fused to IkBa over red control in OCI-Ly3 lymphoma cells), 4 h; measured here: control luc red channel unless noted. Summed up:
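Luminescence ratio of IκBα-fused green versus native red beetle luciferase in OCI-Ly3 cells, 4 h post-doxycycline with compound; red signal alone, scaled from basal (0%) to zero light (-100%), flagged nonspecific or cytotoxic effects.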
As for `Cc1cc(C)cc(NC(=O)C2CCCN(C(=O)c3cnn(-c4ccccc4)c3-n3cccc3)C2)c1` (stereo not drawn), the AC50 was 15.8 µM [falling, partial curve].
The result for `CCC1CCCCN1CC(=O)Nc1cc(C)c2c(=O)oc3ccccc3c2n1` (stereo not drawn) reads 39.8 µM [falling, single point].
Then `Cc1ccc(-c2nonc2NC(=O)c2ccc(F)cc2)cc1C`, with 25.1 µM [falling, single point]; and `CCc1nn(C(CC)C(=O)NCc2ccc(F)cc2)c(=O)c2cc3occc3n12` (stereo not drawn), with 25.1 µM [falling, single point]; and `O=C(COC(=O)C1CC2C=CC1C2)Nc1ccc2c(c1)OC(F)(F)O2` (stereo not drawn), with 31.6 µM [falling, single point].
Then `O=C(CCc1ccccc1)N(Cc1cccnc1)c1nc2c(F)cccc2s1`, with 12.6 µM [falling, partial curve]; and `O=C(Nc1ccc(Cl)c(Cl)c1)OCc1cccnc1`, with 39.8 µM [falling, single point].
Take `COc1cc(C(=O)NCC(c2ccco2)S(=O)(=O)c2ccccc2)cc(OC)c1OC` (stereo not drawn): the AC50 is 0.501 µM [falling, full curve, poor fit].
The result for `CCCOc1ccc(C(=O)N(Cc2ccc(N(C)C)cc2)CC2CCCO2)cc1` (stereo not drawn) reads 20 µM [falling, partial curve]; that for `CC1=C(C(=O)Nc2ccccc2)C(CC(C)C)n2nc(SCc3ccccc3C)nc2N1` (stereo not drawn), 20 µM [falling, partial curve].
Then `O=C(c1cc2c(s1)-c1ccccc1OC2)N1CCN(c2ccccc2)CC1`, with 0.2 µM [falling, full curve].
The result for `CCCOc1ccc2oc(=O)c3c(c2c1)CCCN3C(=O)CN1CCc2ccccc2C1` reads 15.8 µM [falling, partial curve]; that for `CC(=O)c1cccc(NC(=O)Nc2ccc3c(c2)N(C)C(=O)CS3)c1`, 7.94 µM [falling, partial curve]; that for `CCOc1ccc(CNCc2c(C(=O)O)n(Cc3ccc(C)cc3)c3cc(C)ccc23)cc1`, 25.1 µM [falling, single point].
As for `CSc1ccccc1NC(=O)C1CC(c2ccccc2O)=NO1` (stereo not drawn), the AC50 is 20 µM [falling, partial curve].
Then `Cc1c(Cl)cccc1NC(=O)CN(CCc1ccccc1)S(=O)(=O)c1ccccc1`, with 5.01 µM [falling, single point]; and `Cc1cccc(C(=O)N2CCc3cc(CNS(=O)(=O)c4ccc(Cl)s4)ccc32)c1`, with 0.316 µM [falling, full curve]; and `CCCCn1c(NCc2ccc(OC)cc2O)nc2ccccc21`, with 20 µM [falling, partial curve].

In general, AC50 refers to the concentration giving half of the maximal activity seen.
